Structures can show the parent of a compound that is named as a salt. The list shows a part of the results. Single values are uncertain here, since repeats match poorly.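 Human kidney-derived cells stably carry a construct in which eight TEAD-binding elements drive luciferase, measured by luminescence in a drug-repurposing library screen. A hit is any compound whose signal exceeds the plate mean by more than five robust Z scores.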

The subject of the experiment is HEK293A TEAD-LUC reporter. Briefly: TEAD-luciferase reporter activity (YAP activation), robust Z score vs plate; higher = stronger YAP/TEAD activation. Particulars: 24 h. A general note: In a reporter assay the amount or activity of a reporter protein is the signal.

Consider `CCc1c(Cl)c(O)c(Cl)c(O)c1C(=O)O[C@H]1[C@H](O)[C@H](OC)[C@H](OCC2=C/C=C/C[C@H](O)/C(C)=C\[C@H](CC)[C@@H](O[C@@H]3OC(C)(C)C(OC(=O)C(C)C)[C@H](O)[C@@H]3O)C(C)=CC(C)=CC[C@@H]([C@@H](C)O)OC2=O)O[C@@H]1C` (stereo partly drawn) [fidaxomicin], for which the TEAD-luciferase reporter activity was inactive: -1.79 (compound concentration: 200 nM), inactive: -1.01 (compound concentration: 2 uM) and inactive: -0.317 (compound concentration: 10 uM).
In the same order, the values of `CCC(O)(CC)c1ccc(N2CCC(Cc3ccccc3N3CCN(C)CC3)C2=O)cn1` (stereo not drawn) are inactive: 1.53, inactive: -0.387 and inactive: -0.393.
In the same order, the values of `CCCC(=O)c1cnc2c(OC)cccc2c1Nc1ccccc1C` are inactive: -0.422, inactive: 0.806 and inactive: 0.316.
For `Cc1cccc2c(C3C(=O)NC(=O)C3c3nc(N4CCNC5(CC5)C4)cc4ccccc34)c[nH]c12` (stereo not drawn), the TEAD-luciferase reporter activity runs as follows: (compound concentration: 200 nM) inactive: 0.991; (compound concentration: 2 uM) inactive: -1.48; (compound concentration: 10 uM) inactive: -1.73.
In the same order, the values of `NC1(C(=O)O)CC1` are inactive: 2.29, inactive: -0.25 and inactive: 1.75.
As for `CC(C)N1CCC(c2ccccc2)(c2ccccc2)CC1`, the TEAD-luciferase reporter activity reads like this: (compound concentration: 200 nM) inactive: -0.204; (compound concentration: 2 uM) inactive: -0.783; (compound concentration: 10 uM) inactive: -0.0901.
For `O=C1Nc2ccccc2C(c2ccccc2)N1C1CCN(Cc2cccc(OC(F)(F)F)c2)CC1` (stereo not drawn) [Afacifenacin fumarate], the TEAD-luciferase reporter activity reads like this: (compound concentration: 200 nM) inactive: 0.24; (compound concentration: 2 uM) inactive: -0.39; (compound concentration: 10 uM) inactive: 2.62.
For the molecule `CC(C)NC1CCC(c2ccccc2)(c2ccccc2)CC1`, the TEAD-luciferase reporter activity is inactive: -0.259 (compound concentration: 200 nM), inactive: -0.451 (compound concentration: 2 uM) and inactive: 0.444 (compound concentration: 10 uM).
The like results for `CO[C@H]1O[C@@H]2O[C@]3(C)CC[C@H]4[C@H](C)CC[C@@H]([C@H]1C)[C@@]24OO3` [Artemether] were, in that order, inactive: -2.01, inactive: -0.897 and inactive: -1.12.
In the same order, the values of `Cn1cc(NS(C)(=O)=O)c(=O)c2ccccc21` are inactive: -0.483, inactive: -0.493 and inactive: -0.236.
In the same order, the values of `CC(C)(C)NC(=O)c1ccc(Oc2cc(F)c(CC(=O)O)cc2Cl)c(NS(=O)(=O)c2ccc(C3CC3)cc2Cl)c1` are inactive: -0.542, inactive: -0.179 and inactive: -0.864.
In the case of `CN/C(=N\S(=O)(=O)c1ccc(C(F)(F)F)cc1)N1C[C@H](c2ccccc2)C(c2ccc(Cl)cc2)=N1`, the TEAD-luciferase reporter activity was inactive: -1.87 (compound concentration: 200 nM), inactive: 0.15 (compound concentration: 2 uM) and inactive: -0.758 (compound concentration: 10 uM).
The like results for `NC(=O)c1ccn2c1CSC2c1cccnc1` (stereo not drawn) were, in that order, inactive: -2.05, inactive: 1.18 and inactive: -0.302.
The like results for `Cc1cc(F)ccc1Nc1ccc(C(=O)c2ccccc2C)c(Cl)c1` were, in that order, inactive: -1.35, inactive: -0.0446 and inactive: -0.575.
Regarding `CC(C)(N)C(=O)N[C@H](CCCc1ccccc1)C(=O)N1CCC2(CC1)CN(S(C)(=O)=O)c1ccccc12`, the TEAD-luciferase reporter activity runs as follows: (compound concentration: 200 nM) inactive: -1.9; (compound concentration: 2 uM) inactive: 1.72; (compound concentration: 10 uM) inactive: -1.81.
In the same order, the values of `CC(C)(Oc1ccc(Cl)cc1)C(=O)OCCOC(=O)c1cccnc1` [etofibrate] are inactive: -0.552, inactive: -2.4 and inactive: -2.24.
Turning to `CC(C)CN(C[C@@H](O)[C@H](Cc1ccccc1)NC(=O)[C@H](CC(N)=O)NC(=O)c1ccc2ccccc2n1)C(=O)NC(C)(C)C`, the TEAD-luciferase reporter activity (compound concentration: 200 nM) was inactive: -1.72, the TEAD-luciferase reporter activity (compound concentration: 2 uM) is inactive: -0.997 and the TEAD-luciferase reporter activity (compound concentration: 10 uM) is inactive: 2.33.
For `N=C(N)Nc1nc(CSCCN/C=N/S(=O)(=O)c2ccc(Br)cc2)cs1` [Ebrotidine], the TEAD-luciferase reporter activity (compound concentration: 2 uM) is inactive: -0.324.
`N=C(N)Nc1nc(CSCCN/C=N/S(=O)(=O)c2ccc(Br)cc2)cs1`: the TEAD-luciferase reporter activity runs as follows: (compound concentration: 200 nM) inactive: -0.673; (compound concentration: 2 uM) inactive: -1.39; (compound concentration: 10 uM) inactive: -0.74.
Turning to `CC1(C)OB(O)c2cc(NC(=O)c3ccc(F)cc3C(F)(F)F)ccc21`, the TEAD-luciferase reporter activity is inactive: -0.766 (compound concentration: 200 nM), inactive: 1.24 (compound concentration: 2 uM) and active: 6.03 (compound concentration: 10 uM).
Turning to `Cc1cnc(CNCC2(F)CCN(C(=O)c3ccc(F)c(Cl)c3)CC2)nc1`, the TEAD-luciferase reporter activity is, setting by setting: (compound concentration: 200 nM) inactive: 3.18; (compound concentration: 2 uM) inactive: 0.748; (compound concentration: 10 uM) inactive: 1.2.
Take `C=CCNC(=O)c1c[nH]c2cccnc12`: the TEAD-luciferase reporter activity is, setting by setting: (compound concentration: 200 nM) inactive: -0.183; (compound concentration: 10 uM) inactive: 0.513.
